Assay results as given in patent publication US20210079099A1 (VESTLANDETS INNOVASJONSSELSKAP, published 2021).
No constants are given. Whether binding was seen depends on the method and setting. Some entries that bind do so weakly or less than the wild type. Tags and fused reporters may be left off the sequences shown. Each block holds one binder with its values, some of them ahead of it.

The chains behind the UniProt entries cited, without tags or fusion partners. Where a name states a change or a piece, a line headed by the entry shows the natural chain unless it says otherwise.
UniProt P17301: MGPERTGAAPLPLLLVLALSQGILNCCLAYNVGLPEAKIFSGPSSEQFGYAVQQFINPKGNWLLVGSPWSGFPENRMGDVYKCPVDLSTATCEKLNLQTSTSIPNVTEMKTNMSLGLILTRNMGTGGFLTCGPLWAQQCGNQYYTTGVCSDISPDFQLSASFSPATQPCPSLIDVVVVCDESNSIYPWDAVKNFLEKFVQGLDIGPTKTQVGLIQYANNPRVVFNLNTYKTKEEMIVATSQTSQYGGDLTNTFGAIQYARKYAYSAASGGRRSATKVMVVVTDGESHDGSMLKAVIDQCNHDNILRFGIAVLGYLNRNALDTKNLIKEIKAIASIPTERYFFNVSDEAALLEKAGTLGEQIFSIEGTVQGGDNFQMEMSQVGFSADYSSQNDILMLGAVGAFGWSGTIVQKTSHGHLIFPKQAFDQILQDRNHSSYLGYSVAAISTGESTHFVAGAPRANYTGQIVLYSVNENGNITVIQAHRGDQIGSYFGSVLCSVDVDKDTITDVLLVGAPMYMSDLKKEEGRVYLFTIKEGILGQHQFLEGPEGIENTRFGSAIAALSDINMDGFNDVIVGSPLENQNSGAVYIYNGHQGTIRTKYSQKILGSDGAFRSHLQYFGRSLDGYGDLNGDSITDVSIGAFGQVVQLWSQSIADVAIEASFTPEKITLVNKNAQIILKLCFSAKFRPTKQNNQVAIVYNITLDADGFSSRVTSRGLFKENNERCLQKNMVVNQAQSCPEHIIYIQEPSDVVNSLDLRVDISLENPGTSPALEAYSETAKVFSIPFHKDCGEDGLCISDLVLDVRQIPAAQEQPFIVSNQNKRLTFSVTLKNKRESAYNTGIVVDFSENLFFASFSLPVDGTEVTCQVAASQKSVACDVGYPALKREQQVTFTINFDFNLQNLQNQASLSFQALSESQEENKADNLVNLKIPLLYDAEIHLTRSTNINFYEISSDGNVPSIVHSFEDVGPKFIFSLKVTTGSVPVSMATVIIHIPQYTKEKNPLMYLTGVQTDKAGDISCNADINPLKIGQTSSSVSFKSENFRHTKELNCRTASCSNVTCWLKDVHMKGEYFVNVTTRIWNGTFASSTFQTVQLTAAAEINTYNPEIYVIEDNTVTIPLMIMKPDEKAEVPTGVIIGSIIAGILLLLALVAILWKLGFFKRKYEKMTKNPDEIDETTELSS

How the values were obtained:
[1] = target: T1, chimeric human integrin alpha-11 with its I-domain replaced by the human alpha-2 I-domain, EGFP fusion, on C2C12 cells (human) (UniProt Q9UKX5+P17301); test: flow cytometry on fixed transfected C2C12 cells
T1 sequence (looked up): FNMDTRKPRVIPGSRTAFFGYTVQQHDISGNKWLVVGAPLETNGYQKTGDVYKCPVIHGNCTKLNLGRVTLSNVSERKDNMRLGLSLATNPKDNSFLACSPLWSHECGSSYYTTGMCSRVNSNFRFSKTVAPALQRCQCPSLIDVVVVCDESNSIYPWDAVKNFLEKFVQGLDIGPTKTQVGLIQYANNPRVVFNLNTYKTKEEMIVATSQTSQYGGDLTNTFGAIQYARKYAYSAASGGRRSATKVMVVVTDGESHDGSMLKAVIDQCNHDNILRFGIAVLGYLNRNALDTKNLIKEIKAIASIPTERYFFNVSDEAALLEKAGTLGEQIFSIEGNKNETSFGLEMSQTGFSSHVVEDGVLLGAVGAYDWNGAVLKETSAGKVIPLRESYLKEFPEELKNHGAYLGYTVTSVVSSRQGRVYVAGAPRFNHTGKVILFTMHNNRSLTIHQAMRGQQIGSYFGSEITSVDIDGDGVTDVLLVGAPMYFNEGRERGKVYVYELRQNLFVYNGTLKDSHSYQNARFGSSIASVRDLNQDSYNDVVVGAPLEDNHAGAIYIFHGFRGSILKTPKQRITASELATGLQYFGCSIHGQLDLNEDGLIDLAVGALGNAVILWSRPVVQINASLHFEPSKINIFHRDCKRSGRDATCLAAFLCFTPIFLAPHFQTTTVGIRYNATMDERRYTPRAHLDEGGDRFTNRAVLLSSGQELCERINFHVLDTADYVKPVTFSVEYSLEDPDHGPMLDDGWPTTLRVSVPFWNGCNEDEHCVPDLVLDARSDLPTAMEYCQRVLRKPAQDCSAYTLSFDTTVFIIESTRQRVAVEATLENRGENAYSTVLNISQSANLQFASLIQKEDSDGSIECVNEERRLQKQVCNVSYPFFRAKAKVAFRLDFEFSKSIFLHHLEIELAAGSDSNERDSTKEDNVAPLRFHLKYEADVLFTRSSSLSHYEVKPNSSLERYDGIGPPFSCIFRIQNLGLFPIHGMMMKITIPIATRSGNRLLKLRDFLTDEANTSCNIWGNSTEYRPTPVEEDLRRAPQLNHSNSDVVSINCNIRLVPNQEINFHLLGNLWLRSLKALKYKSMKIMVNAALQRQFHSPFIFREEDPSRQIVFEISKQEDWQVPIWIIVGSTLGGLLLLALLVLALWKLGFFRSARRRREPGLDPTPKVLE

[2] = target: T2, human integrin α11-EGFP expressed on C2C12 mouse myoblast cells (human) (UniProt Q9UKX5); test: Western blot on C2C12-hu α11-EGFP lysate
T2 sequence (looked up): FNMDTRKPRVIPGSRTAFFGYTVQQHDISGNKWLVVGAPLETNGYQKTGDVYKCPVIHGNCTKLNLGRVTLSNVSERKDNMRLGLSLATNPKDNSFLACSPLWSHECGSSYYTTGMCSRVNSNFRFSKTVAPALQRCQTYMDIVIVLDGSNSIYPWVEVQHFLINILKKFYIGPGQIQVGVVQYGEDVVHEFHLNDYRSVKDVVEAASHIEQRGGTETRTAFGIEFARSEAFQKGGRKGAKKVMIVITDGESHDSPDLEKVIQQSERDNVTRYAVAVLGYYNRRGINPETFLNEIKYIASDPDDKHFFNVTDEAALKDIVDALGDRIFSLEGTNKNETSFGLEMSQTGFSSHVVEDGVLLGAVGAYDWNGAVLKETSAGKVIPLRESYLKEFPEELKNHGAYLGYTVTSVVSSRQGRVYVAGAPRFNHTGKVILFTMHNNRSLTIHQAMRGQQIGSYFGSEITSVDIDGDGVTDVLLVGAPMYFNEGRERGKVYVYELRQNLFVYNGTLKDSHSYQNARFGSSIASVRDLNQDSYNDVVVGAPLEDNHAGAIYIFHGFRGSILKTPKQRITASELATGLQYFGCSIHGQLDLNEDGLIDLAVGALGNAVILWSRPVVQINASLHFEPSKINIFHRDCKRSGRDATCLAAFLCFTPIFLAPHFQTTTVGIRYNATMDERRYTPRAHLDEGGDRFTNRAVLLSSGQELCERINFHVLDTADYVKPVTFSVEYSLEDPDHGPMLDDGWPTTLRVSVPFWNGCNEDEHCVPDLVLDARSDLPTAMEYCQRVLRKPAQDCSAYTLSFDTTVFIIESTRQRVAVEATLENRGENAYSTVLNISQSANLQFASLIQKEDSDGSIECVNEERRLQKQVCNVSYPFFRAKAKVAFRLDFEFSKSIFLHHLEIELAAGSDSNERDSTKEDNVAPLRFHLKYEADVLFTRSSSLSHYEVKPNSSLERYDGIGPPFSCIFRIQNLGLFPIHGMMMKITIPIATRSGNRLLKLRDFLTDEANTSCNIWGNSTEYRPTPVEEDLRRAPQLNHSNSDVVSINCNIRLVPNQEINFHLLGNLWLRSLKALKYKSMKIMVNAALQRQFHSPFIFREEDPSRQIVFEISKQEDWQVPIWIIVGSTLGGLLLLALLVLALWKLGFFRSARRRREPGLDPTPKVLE

[3] = target: T2, human integrin α11-EGFP expressed on C2C12 mouse myoblast cells (human); test: flow cytometry on fixed transfected C2C12 cells

binding [1]: binds
B1: monoclonal mouse antibody 234 H11E8 produced by the hybridoma deposited as DSM ACC3319 (antibody, V domains shown)
VH: QVQLKESGPGLVAPSQSLSITCTVSGFSLTNSAVHWVRQSPGKGLEWLGVVWSYGSTDYNAAFISRLSITKDNSKSQVFFKMNSLQADDTAIYYCARSQIYADYYDYFDYWGQGTTLTVSS
VL: DIQMTQSTSSLSASLGDRVTISCRASQDISNFLNWSQQKPDGTVKLLIYYTSRLHSGVPSRFSGSGSGTDYSLTISNLEQEDIGTYFCQQGNTLPLTFGAGTKLELR
notes: Mouse anti-human alpha-11 IgG from a hybridoma (NT-HRM mice); used as hybridoma supernatant or mAb; constant regions are not; also called 234H11E8 mAb; α11 234H11E8 mAb

binding [2]: binds
binding [3]: binds
binding [1]: binds
B2: monoclonal mouse antibody 203 E1H5 produced by the hybridoma deposited as DSM ACC3318 (antibody, V domains shown)
VH: QVQLKESGPGLVAPSQSLSITCTVSGFSLTNYAVHWVRQSPGKGLEWLGVIWSYGSTDYNAAFISKLSISKDNSKSQVFFTMSSLQADDTAIYYCARSQIYGGFYDFFDFWGQGTTLTVSS
VL: CDIQMTQTPSSLSASLGDRVTIICRASQDISNFLNWFQQKPDGTIKLLIYYSSRLHSGVPSRFSGSGSGTDYSLTISNLEQEDLATYFCQQGNTLPLTFGAGTKLELT
notes: Mouse anti-human alpha-11 IgG from a hybridoma (NT-HRM mice); used as hybridoma supernatant or mAb; also called 203E1H5 mAb; α11 203E1H5 mAb
